# Results as given in the supplement of paper PMC8728848.
# The other results are listed elsewhere or left out.
# B1: MFG-E8 (Mus musculus), P21956 (protein)
# chain: MQVSRVLAALCGMLLCASGLFAASGDFCDSSLCLNGGTCLTGQDNDIYCLCPEGFTGLVCNETERGPCSPNPCYNDAKCLVTLDTQRGDIFTEYICQCPVGYSGIHCETETNYYNLDGEYMFTTAVPNTAVPTPAPTPDLSNNLASRCSTQLGMEGGAIADSQISASSVYMGFMGLQRWGPELARLYRTGIVNAWTASNYDSKPWIQVNLLRKMRVSGVMTQGASRAGRAEYLKTFKVAYSLDGRKFEFIQDESGGDKEFLGNLDNNSLKVNMFNPTLEAQYIKLYPVSCHRGCTLRFELLGCELHGCSEPLGLKNNTIPDSQMSASSSYKTWNLRAFGWYPHLGRLDNQGKINAWTAQSNSAKEWLQVDLGTQRQVTGIITQGARDFGHIQYVASYKVAHSDDGVQWTVYEEQGSSKVFQGNLDNNSHKKNIFEKPFMARYVRVLPVSWHNRITLRLELLGC
# Assays:
# Experiment in all cases: glycan array binding signal (z-score within array); higher = stronger binding
# Settings in all cases: glycan notation: IUPAC condensed, linker removed
# [1] = molecular target: Gal(b1-3)GlcNAc(b1-2)Man
# In short: (§1)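 The Consortium for Functional Glycomics database supplied 3228 glycan arrays, of which those lacking an available protein sequence were dropped. The binding signal, a within-array Z-score, was averaged across arrays of the same protein sequence and across linkers. Negative scores can be read as non-binding.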
# [2] = molecular target: Gal(b1-3)GlcNAc(b1-2)Man(a1-3)[Gal(b1-3)GlcNAc(b1-2)Man(a1-6)]Man(b1-4)GlcNAc(b1-4)GlcNAc
# In short: as §1
# [3] = molecular target: Gal(b1-3)GlcNAc(b1-2)Man(a1-3)[Gal(b1-3)GlcNAc(b1-2)Man(a1-6)]Man(b1-4)GlcNAc(b1-4)[Fuc(a1-6)]GlcNAc
# In short: as §1
# [4] = molecular target: Gal(b1-3)GlcNAc(b1-2)Man(a1-3)[GlcNAc(b1-4)][Gal(b1-3)GlcNAc(b1-2)Man(a1-6)]Man(b1-4)GlcNAc(b1-4)GlcNAc
# In short: as §1
# [5] = molecular target: Gal(b1-3)GlcNAc(b1-2)[Gal(b1-3)GlcNAc(b1-6)]Man(a1-6)[Gal(b1-3)GlcNAc(b1-2)Man(a1-3)]Man(b1-4)GlcNAc(b1-4)GlcNAc
# In short: as §1
# [6] = molecular target: Gal(b1-3)GlcNAc(b1-3)Gal(b1-3)GlcNAc
# In short: as §1
# [7] = molecular target: Gal(b1-3)GlcNAc(b1-3)Gal(b1-4)Glc
# In short: as §1
# [8] = molecular target: Gal(b1-3)GlcNAc(b1-3)Gal(b1-4)GlcNAc
# In short: as §1
# [9] = molecular target: Gal(b1-3)GlcNAc(b1-3)Gal(b1-4)GlcNAc(b1-2)Man(a1-3)[Gal(b1-3)GlcNAc(b1-3)Gal(b1-4)GlcNAc(b1-2)Man(a1-6)]Man(b1-4)GlcNAc(b1-4)GlcNAc
# In short: as §1
# [10] = molecular target: Gal(b1-3)GlcNAc(b1-3)Gal(b1-4)GlcNAc(b1-2)[Gal(b1-3)GlcNAc(b1-3)Gal(b1-4)GlcNAc(b1-6)]Man(a1-6)[Gal(b1-3)GlcNAc(b1-3)Gal(b1-4)GlcNAc(b1-2)Man(a1-3)]Man(b1-4)GlcNAc(b1-4)[Fuc(a1-6)]GlcNAc
# In short: as §1
# [11] = molecular target: Gal(b1-3)GlcNAc(b1-3)Gal(b1-4)GlcNAc(b1-3)Gal(b1-4)GlcNAc(b1-2)[Gal(b1-3)GlcNAc(b1-3)Gal(b1-4)GlcNAc(b1-3)Gal(b1-4)GlcNAc(b1-6)]Man(a1-6)[Gal(b1-3)GlcNAc(b1-3)Gal(b1-4)GlcNAc(b1-3)Gal(b1-4)GlcNAc(b1-2)Man(a1-3)]Man(b1-4)GlcNAc(b1-4)[Fuc(a1-6)]GlcNAc
# In short: as §1
# [12] = molecular target: Gal(b1-3)GlcNAc(b1-3)Gal(b1-4)GlcNAc(b1-6)[Gal(b1-3)GlcNAc(b1-3)]Gal(b1-4)Glc
# In short: as §1
# [13] = molecular target: Gal(b1-3)GlcNAc(b1-3)Gal(b1-4)[Fuc(a1-3)]GlcNAc
# In short: as §1
# [14] = molecular target: Gal(b1-3)GlcNAc(b1-3)Gal(b1-4)[Fuc(a1-3)]GlcNAc(b1-6)[Gal(b1-3)GlcNAc(b1-3)]Gal(b1-4)Glc
# In short: as §1
# [15] = molecular target: Gal(b1-3)GlcNAc(b1-3)GalNAc
# In short: as §1
# [16] = molecular target: Gal(b1-3)GlcNAc(b1-6)Gal(b1-4)GlcNAc
# In short: as §1
# [17] = molecular target: Gal(b1-3)GlcNAc(b1-6)GalNAc
# In short: as §1
# [18] = molecular target: Gal(b1-3)GlcNAc(b1-6)[Gal(b1-3)]GalNAc
# In short: as §1
# [19] = molecular target: Gal(b1-3)GlcNAc6S
# In short: as §1
# [20] = molecular target: Gal(b1-3)[Fuc(a1-4)]GlcNAc
# In short: as §1
# [21] = molecular target: Gal(b1-3)[Fuc(a1-4)]GlcNAc(b1-2)Man
# In short: as §1
# [22] = molecular target: Gal(b1-3)[Fuc(a1-4)]GlcNAc(b1-2)Man(a1-3)[Gal(b1-3)[Fuc(a1-4)]GlcNAc(b1-2)Man(a1-6)]Man(b1-4)GlcNAc(b1-4)GlcNAc
# In short: as §1
# [23] = molecular target: Gal(b1-3)[Fuc(a1-4)]GlcNAc(b1-2)Man(a1-3)[Gal(b1-3)[Fuc(a1-4)]GlcNAc(b1-2)Man(a1-6)]Man(b1-4)GlcNAc(b1-4)[Fuc(a1-6)]GlcNAc
# In short: as §1
# [24] = molecular target: Gal(b1-3)[Fuc(a1-4)]GlcNAc(b1-3)Gal(b1-3)[Fuc(a1-4)]GlcNAc
# In short: as §1
# [25] = molecular target: Gal(b1-3)[Fuc(a1-4)]GlcNAc(b1-3)Gal(b1-4)GlcNAc
# In short: as §1
# [26] = molecular target: Gal(b1-3)[Fuc(a1-4)]GlcNAc(b1-3)Gal(b1-4)[Fuc(a1-3)]GlcNAc
# In short: as §1
# [27] = molecular target: Gal(b1-3)[Fuc(a1-4)]GlcNAc(b1-6)GalNAc
# In short: as §1
# [28] = molecular target: Gal(b1-3)[GlcNAc(b1-6)]GalNAc
# In short: as §1
# [29] = molecular target: Gal(b1-3)[Neu5Ac(a2-6)]GalNAc
# In short: as §1
# [30] = molecular target: Gal(b1-3)[Neu5Ac(a2-6)]GlcNAc(b1-4)Gal(b1-4)Glc
# In short: as §1
# [31] = molecular target: Gal(b1-3)[Neu5Ac(a2-6)]GlcNAc(b1-6)Gal(b1-4)Glc
# In short: as §1
# [32] = molecular target: Gal(b1-3)[Neu5Ac(b2-6)]GalNAc
# In short: as §1
# [33] = molecular target: Gal(b1-4)Gal
# In short: as §1
# [34] = molecular target: Gal(b1-4)GalNAc(a1-3)[Fuc(a1-2)]Gal(b1-4)GlcNAc
# In short: as §1
# [35] = molecular target: Gal(b1-4)GalNAc(b1-3)[Fuc(a1-2)]Gal(b1-4)GlcNAc
# In short: as §1
# [36] = molecular target: Gal(b1-4)Glc
# In short: as §1
# [37] = molecular target: Gal(b1-4)Glc6S
# In short: as §1
# [38] = molecular target: Gal(b1-4)GlcNAc
# In short: as §1
binder,measurement,setting,value
B1,glycan array binding signal (z-score),[1],-0.138
same,glycan array binding signal (z-score),[2],-0.048
same,glycan array binding signal (z-score),[3],-0.351
same,glycan array binding signal (z-score),[4],0.77
same,glycan array binding signal (z-score),[5],-0.004
same,glycan array binding signal (z-score),[6],0.102
same,glycan array binding signal (z-score),[7],-0.86
same,glycan array binding signal (z-score),[8],-0.535
same,glycan array binding signal (z-score),[9],-0.424
same,glycan array binding signal (z-score),[10],-0.699
same,glycan array binding signal (z-score),[11],0.221
same,glycan array binding signal (z-score),[12],-0.966
same,glycan array binding signal (z-score),[13],1.5
same,glycan array binding signal (z-score),[14],-0.11
same,glycan array binding signal (z-score),[15],-0.036
same,glycan array binding signal (z-score),[16],0.294
same,glycan array binding signal (z-score),[17],-0.538
same,glycan array binding signal (z-score),[18],0.931
same,glycan array binding signal (z-score),[19],0.712
same,glycan array binding signal (z-score),[20],0.682
same,glycan array binding signal (z-score),[21],-0.412
same,glycan array binding signal (z-score),[22],0.151
same,glycan array binding signal (z-score),[23],0.056
same,glycan array binding signal (z-score),[24],0.302
same,glycan array binding signal (z-score),[25],-0.022
same,glycan array binding signal (z-score),[26],0.048
same,glycan array binding signal (z-score),[27],-0.161
same,glycan array binding signal (z-score),[28],0.343
same,glycan array binding signal (z-score),[29],-0.539
same,glycan array binding signal (z-score),[30],0.041
same,glycan array binding signal (z-score),[31],0.143
same,glycan array binding signal (z-score),[32],0.16
same,glycan array binding signal (z-score),[33],-0.402
same,glycan array binding signal (z-score),[34],0.07
same,glycan array binding signal (z-score),[35],0.509
same,glycan array binding signal (z-score),[36],-0.798
same,glycan array binding signal (z-score),[37],0.026
same,glycan array binding signal (z-score),[38],-0.495

# Shown tab-delimited: part of the list above.
binder	measurement	setting	value
B1	glycan array binding signal (z-score)	[4]	0.77
same	glycan array binding signal (z-score)	[27]	-0.161
